From the supplement of paper PMC7840683

System: HepaRG
Experiment: LDH release cytotoxicity, % of total lysis control; higher = more cytotoxic
Settings: 48 h
In short: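 The CytoTox-ONE kit was used to read LDH in 50 µL spent medium as resorufin fluorescence on a Tecan Safire, with 0.1% Triton X added to total lysis wells. Beforehand, single-lot HepaRG cells on collagen I-coated 96-well plates had been exposed in duplicate for 48 h to eight-point half-log series (top 100 µM) in serum-free induction medium containing 0.5% DMSO. Percent cytotoxicity was normalized against on-plate vehicle and total lysis controls and averaged over duplicates.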

O=C(c1ccccc1)c1ccccc1 [Benzophenone]
Settings | LDH release cytotoxicity [%]
0.03162 µM | -0.384
0.1 µM | -1.41
0.3162278 µM | -1.26
1 µM | -1.32
3.16228 µM | -0.85
10 µM | -0.923
31.6228 µM | -1.28
100 µM | -0.16
